These results are taken from PMC5522482.

The chains behind the UniProt entries cited, without tags or fusion partners. Where a name states a change or a piece, a line headed by the entry shows the natural chain unless it says otherwise.
UniProt P36897: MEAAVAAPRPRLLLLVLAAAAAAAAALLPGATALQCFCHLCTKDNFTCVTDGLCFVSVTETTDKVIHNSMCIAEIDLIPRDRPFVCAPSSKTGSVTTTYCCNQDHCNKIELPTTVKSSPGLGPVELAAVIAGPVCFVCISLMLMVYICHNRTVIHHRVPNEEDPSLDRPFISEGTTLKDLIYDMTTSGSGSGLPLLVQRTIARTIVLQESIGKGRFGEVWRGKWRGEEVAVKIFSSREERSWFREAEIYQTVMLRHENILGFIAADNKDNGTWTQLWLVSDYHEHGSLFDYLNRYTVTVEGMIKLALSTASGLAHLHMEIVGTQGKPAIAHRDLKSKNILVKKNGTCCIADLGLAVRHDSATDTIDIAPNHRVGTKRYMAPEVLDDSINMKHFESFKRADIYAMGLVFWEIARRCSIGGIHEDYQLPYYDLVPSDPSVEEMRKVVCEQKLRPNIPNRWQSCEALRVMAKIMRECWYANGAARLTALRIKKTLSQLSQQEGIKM
UniProt P37173: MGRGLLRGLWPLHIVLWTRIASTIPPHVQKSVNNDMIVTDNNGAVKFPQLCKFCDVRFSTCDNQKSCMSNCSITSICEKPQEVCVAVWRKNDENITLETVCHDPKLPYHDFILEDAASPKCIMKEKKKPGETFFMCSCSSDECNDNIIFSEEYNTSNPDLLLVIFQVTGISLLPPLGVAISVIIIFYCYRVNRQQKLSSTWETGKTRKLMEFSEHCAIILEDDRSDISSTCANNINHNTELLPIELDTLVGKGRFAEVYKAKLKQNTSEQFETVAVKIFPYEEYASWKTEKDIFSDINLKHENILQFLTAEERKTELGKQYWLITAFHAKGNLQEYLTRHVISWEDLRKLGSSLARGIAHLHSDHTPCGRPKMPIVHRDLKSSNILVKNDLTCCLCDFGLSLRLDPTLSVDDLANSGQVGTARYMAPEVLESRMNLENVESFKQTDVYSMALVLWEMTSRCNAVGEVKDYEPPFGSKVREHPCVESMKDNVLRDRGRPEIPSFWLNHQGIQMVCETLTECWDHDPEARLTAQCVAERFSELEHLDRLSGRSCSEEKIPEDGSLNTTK

The assay deals with ALK5 receptor complex (ALK5-Fc and TβRII-Fc) (human) (UniProt P36897+P37173). Description: pull-down; ALK1-Fc or ALK5-Fc pre-incubated with TβRII-Fc, held on protein A/G Dynabeads; incubated with IL-37 (50 nmol/l) or/with TGF-β (100 nmol/l), 2 h, 4 °C; Western blot; both purified.

These are yes or no findings as the source states them, for the method shown.

B1: Recombinant human IL-37 (ligand, UniProt Q9NZH6 46-218)
chain: VHTSPKVKNLNPKKFSIHDQDHKVLVLDSGNLIAVPDKNYIRPEIFFALASSLSSASAEKGSPILLGVSKGEFCLYCDKDKGQSHPSLQLKKEKLMKLAAQKESARRPFIFYRAQVGSWNMLESAAHPGWFICTSCNCNEPVGVTDKFENRKHIEFSFQPVCKAEMSPSEVSD
As to B1, the binding entry is “no binding (tested: 50 nmol/l)”.
